Structures can show the parent of a compound that is named as a salt. The list shows a part of the results. Repeats in this data set agree poorly, so a single value says little.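 Test systems: triple-negative MDA-MB-231 breast cancer cells and their brain-metastatic MDA-MB-231BRM derivative, each stably carrying empty vector, full-length GLI1 or truncated tGLI1. Viability after 48 h was read by CellTiter-Blue and expressed against 1% DMSO vehicle. A compound was tGLI1-selective if it lowered viability 20% more in tGLI1 cells than in vector and GLI1 cells.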
Legend:
Assay in all cases: cell viability relative to vehicle (DMSO) control (fraction); higher = more viable cells (less growth inhibition)
Details in all cases: treatment time 48 h
MDA-MB-231 GLI1 = test system: MDA-MB-231 GLI1
MDA-MB-231 Vector = test system: MDA-MB-231 Vector
MDA-MB-231 tGLI1 = test system: MDA-MB-231 tGLI1
MDA-MB-231BRM GLI1 = test system: MDA-MB-231BRM GLI1
MDA-MB-231BRM Vector = test system: MDA-MB-231BRM Vector
MDA-MB-231BRM tGLI1 = test system: MDA-MB-231BRM tGLI1

Compound | cell viability (MDA-MB-231 GLI1; 0.05 µM) | cell viability (MDA-MB-231 GLI1; 0.5 µM) | cell viability (MDA-MB-231 GLI1; 5 µM) | cell viability (MDA-MB-231 Vector; 0.05 µM) | cell viability (MDA-MB-231 Vector; 0.5 µM) | cell viability (MDA-MB-231 Vector; 5 µM) | cell viability (MDA-MB-231 tGLI1; 0.05 µM) | cell viability (MDA-MB-231 tGLI1; 0.5 µM) | cell viability (MDA-MB-231 tGLI1; 5 µM) | cell viability (MDA-MB-231BRM GLI1; 0.05 µM) | cell viability (MDA-MB-231BRM GLI1; 0.5 µM) | cell viability (MDA-MB-231BRM GLI1; 5 µM) | cell viability (MDA-MB-231BRM Vector; 0.05 µM) | cell viability (MDA-MB-231BRM Vector; 0.5 µM) | cell viability (MDA-MB-231BRM Vector; 5 µM) | cell viability (MDA-MB-231BRM tGLI1; 0.05 µM) | cell viability (MDA-MB-231BRM tGLI1; 0.5 µM) | cell viability (MDA-MB-231BRM tGLI1; 5 µM)
COc1cccc2c1C(=O)c1c(O)c3c(c(O)c1C2=O)C[C@@](O)(C(=O)CO)C[C@@H]3O[C@H]1C[C@H](N)[C@@H](O)[C@H](C)O1 [Epirubicin HCl] | 0.676 | 0.0422 | -0.127 | 0.764 | -0.198 | -0.349 | 0.462 | -0.0484 | -0.217 | 1.04 | 0.0981 | -0.0563 | 1.06 | 0.114 | -0.0409 | 1.05 | 0.123 | -0.0422
CCCCCOC(=O)Nc1nc(=O)n([C@@H]2O[C@H](C)[C@@H](O)[C@H]2O)cc1F [Capecitabine (Xeloda)] | 1.21 | 1.08 | 1.15 | 1.35 | 1.1 | 1.26 | 1.12 | 0.993 | 0.947 | 1.03 | 0.983 | 0.954 | 1.09 | 1.04 | 1.03 | 1.06 | 1.02 | 1.07
Cc1cc(C)nc(NS(=O)(=O)c2ccc(NC(=S)NC(=O)COc3ccc(Br)cc3Cl)cc2)n1 | 1.5 | 1.64 | 1.18 | 1.31 | 1.46 | 1.39 | 1.5 | 1.42 | 1.1 | 1.09 | 0.979 | 0.931 | 1.18 | 0.979 | 0.988 | 1.03 | 1.07 | 0.993
CS(=O)(=O)c1cccc(CNc2nc(Nc3ccc4c(c3)CCC(=O)N4)ncc2C(F)(F)F)c1 | 1.23 | 1.2 | 0.813 | 1.48 | 1.1 | 0.612 | 1 | 1.13 | 0.709 | 1.12 | 1.04 | 0.876 | 1.04 | 1.08 | 0.873 | 1.01 | 1.09 | 0.869
C=CC(=O)Nc1cccc(Nc2nc(Nc3ccc(Oc4ccnc(C(=O)NC)c4)cc3)ncc2F)c1 | 1.1 | 1.26 | 0.616 | 0.825 | 0.893 | 0.599 | 1.02 | 1.16 | 0.803 | 0.853 | 0.936 | 0.688 | 0.986 | 0.949 | 0.642 | 0.942 | 1.01 | 0.74
Cc1cc(Nc2nc(N[C@@H](C)c3ncc(F)cn3)ncc2Cl)[nH]n1 | 1.42 | 1.31 | 0.706 | 1.81 | 1.19 | 0.644 | 1.25 | 1.19 | 0.753 | 1.17 | 1.1 | 0.98 | 0.668 | 1 | 1.04 | 1.09 | 0.727 | 0.928
N#Cc1ccc(C(c2ccc(C#N)cc2)n2cncn2)cc1 [Letrozole] | 1.27 | 1.11 | 1.14 | 1.3 | 1.11 | 1.15 | 0.885 | 1.1 | 0.931 | 1.06 | 1.04 | 0.971 | 1.08 | 1 | 1.03 | 1.05 | 1.06 | 1.06
Cc1nc(N)sc1-c1ccnc(Nc2ccc(N3CCOCC3)cc2)n1 | 1.42 | 1.37 | 0.721 | 0.772 | 1.06 | 0.537 | 1.39 | 1.08 | 0.689 | 1 | 0.901 | 0.954 | 0.991 | 0.916 | 0.965 | 1.02 | 0.934 | 0.865
CCN(CC)CCNC(=O)c1c(C)[nH]c(/C=C2\C(=O)Nc3ccc(F)cc32)c1C [Sunitinib Malate (Sutent)] | 1.57 | 1.41 | 0.469 | 1.78 | 1.27 | 0.405 | 1.46 | 1.2 | 0.379 | 1.05 | 1.08 | 0.539 | 1.02 | 0.999 | 0.665 | 1.04 | 1.01 | 0.698
CCn1c(=O)c(-c2ccc(-c3cncs3)cc2Cl)cc2cnc(Nc3ccc(N4CCN(C)CC4)cc3)nc21 | 1.25 | 1.01 | 0.692 | 0.896 | 0.899 | 0.576 | 1.14 | 0.733 | 0.158 | 0.901 | 0.873 | 1.01 | 1.06 | 0.975 | 1.19 | 1.01 | 0.918 | 1.22
O=C(O)CCC(=O)Nc1ccc(Br)cn1 [Bikinin] | 1.25 | 1.72 | 1.2 | 0.801 | 0.719 | 0.651 | 0.678 | 0.736 | 0.702 | 0.576 | 0.562 | 0.475 | 0.565 | 0.473 | 0.477 | 0.81 | 0.684 | 0.645
COc1cccc(-n2c(=O)[nH]c3cc(Cl)n(-c4ccc(-c5cccc(OC)c5O)cc4)c3c2=O)c1 | 2.15 | 3.02 | 1.63 | 1.42 | 1.26 | 1.1 | 1.24 | 1.5 | 1.17 | 0.902 | 0.741 | 0.615 | 0.876 | 0.723 | 0.629 | 1.24 | 0.989 | 0.907
C=CC(=O)Nc1cccc(Nc2nc(Nc3ccc(NC4CN(CCF)C4)cc3OC)ncc2C(F)(F)F)c1 | 1.13 | 1.59 | 0.741 | 1.19 | 1.35 | 0.519 | 0.955 | 1.52 | 0.713 | 1.02 | 0.969 | 0.942 | 1.01 | 1.04 | 0.955 | 0.97 | 0.948 | 0.901

— the supplement of paper PMC9454738
